Results are given in words; binding and its absence hold for the method and conditions named. In cells and extracts the contact can be indirect. Some entries that bind do so weakly or less than the wild type. For part of these data: Tags and fused reporters may be left off the sequences shown.

The chains behind the UniProt entries cited, without tags or fusion partners.
UniProt Q13185: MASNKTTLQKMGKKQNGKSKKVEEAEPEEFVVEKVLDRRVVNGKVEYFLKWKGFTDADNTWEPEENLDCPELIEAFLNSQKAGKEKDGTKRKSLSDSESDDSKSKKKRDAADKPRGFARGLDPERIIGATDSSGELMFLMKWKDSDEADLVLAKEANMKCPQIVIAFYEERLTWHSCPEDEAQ

Experimental findings from article PMC5358341 are described below.

Experiment [1] addresses T1, GFP–NIPBL^N (smallest N-terminal fragment of NIPBL isoform A fused to GFP) (human) (UniProt Q6KC79).
T1 sequence: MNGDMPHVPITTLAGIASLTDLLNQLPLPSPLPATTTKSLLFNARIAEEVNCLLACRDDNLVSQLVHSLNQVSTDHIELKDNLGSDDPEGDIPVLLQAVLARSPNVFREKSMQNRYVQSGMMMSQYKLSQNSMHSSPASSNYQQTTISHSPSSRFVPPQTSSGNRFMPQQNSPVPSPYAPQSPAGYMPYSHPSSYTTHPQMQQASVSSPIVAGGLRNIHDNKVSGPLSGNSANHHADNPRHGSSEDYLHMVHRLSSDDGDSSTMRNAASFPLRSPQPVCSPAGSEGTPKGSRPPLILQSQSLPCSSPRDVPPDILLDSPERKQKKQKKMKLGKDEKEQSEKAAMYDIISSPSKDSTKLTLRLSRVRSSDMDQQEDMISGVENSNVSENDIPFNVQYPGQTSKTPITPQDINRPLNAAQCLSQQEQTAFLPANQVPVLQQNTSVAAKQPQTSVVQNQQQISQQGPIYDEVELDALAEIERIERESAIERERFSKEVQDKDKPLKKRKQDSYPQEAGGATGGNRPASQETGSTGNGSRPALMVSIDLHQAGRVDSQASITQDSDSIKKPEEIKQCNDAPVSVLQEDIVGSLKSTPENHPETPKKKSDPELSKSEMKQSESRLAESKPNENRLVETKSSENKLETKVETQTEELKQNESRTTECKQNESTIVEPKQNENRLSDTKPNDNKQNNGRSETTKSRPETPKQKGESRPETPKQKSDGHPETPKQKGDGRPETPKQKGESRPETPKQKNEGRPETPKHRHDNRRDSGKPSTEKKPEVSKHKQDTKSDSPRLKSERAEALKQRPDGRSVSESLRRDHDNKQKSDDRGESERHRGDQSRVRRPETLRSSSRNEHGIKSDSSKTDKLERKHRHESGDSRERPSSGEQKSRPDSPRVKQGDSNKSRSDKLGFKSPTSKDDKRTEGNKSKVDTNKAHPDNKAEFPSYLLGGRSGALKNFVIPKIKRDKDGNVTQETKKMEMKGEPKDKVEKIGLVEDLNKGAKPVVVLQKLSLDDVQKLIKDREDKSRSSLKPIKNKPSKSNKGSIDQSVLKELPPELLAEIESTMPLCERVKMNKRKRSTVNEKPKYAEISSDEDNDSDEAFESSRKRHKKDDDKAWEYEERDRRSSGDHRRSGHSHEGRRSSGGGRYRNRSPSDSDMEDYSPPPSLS
Description: co-IP; nuclear extracts (50 mM Hepes, 3 mM MgCl2, 300 mM NaCl, benzonase) incubated with Protein A beads coupled to anti-GFP antibody overnight at 4°C; GFP–NIPBL^N precipitated, HP1γ detected by western blotting. For orientation: A western blot detects proteins with antibodies after separation by electrophoresis.

Experiment [2] deals with GFP–NIPBL^A (full-length NIPBL isoform A fused to GFP) (human) (UniProt Q6KC79). The experiment can be described thus: co-IP; whole-cell extracts (0.5% NP-40, 150 mM NaCl, 50 mM Tris-HCl pH 8, DNAseI) mixed with anti-GFP–Sepharose beads overnight at 4°C; GFP–NIPBL precipitated, native MAU2 detected by western blotting.
In experiment [3] the target is GFP–NIPBL^G15R (full-length NIPBL isoform A with the G15R mutation, fused to GFP) (human) (UniProt Q6KC79). Described as above.

Consider “HP1γ (heterochromatin protein 1 gamma) (from UniProt Q13185 1-183)”, for which the binding result in experiment [1] was “binds”.

B1: native MAU2 (protein, UniProt Q9Y6X3 1-613)
chain: MAAQAAAAAQAAAAQAAQAEAADSWYLALLGFAEHFRTSSPPKIRLCVHCLQAVFPFKPPQRIEARTHLQLGSVLYHHTKNSEQARSHLEKAWLISQQIPQFEDVKFEAASLLSELYCQENSVDAAKPLLRKAIQISQQTPYWHCRLLFQLAQLHTLEKDLVSACDLLGVGAEYARVVGSEYTRALFLLSKGMLLLMERKLQEVHPLLTLCGQIVENWQGNPIQKESLRVFFLVLQVTHYLDAGQVKSVKPCLKQLQQCIQTISTLHDDEILPSNPADLFHWLPKEHMCVLVYLVTVMHSMQAGYLEKAQKYTDKALMQLEKLKMLDCSPILSSFQVILLEHIIMCRLVTGHKATALQEISQVCQLCQQSPRLFSNHAAQLHTLLGLYCVSVNCMDNAEAQFTTALRLTNHQELWAFIVTNLASVYIREGNRHQEVLYSLLERINPDHSFPVSSHCLRAAAFYVRGLFSFFQGRYNEAKRFLRETLKMSNAEDLNRLTACSLVLLGHIFYVLGNHRESNNMVVPAMQLASKIPDMSVQLWSSALLRDLNKACGNAMDAHEAAQMHQNFSQQLLQDHIEACSLPEHNLITWTDGPPPVQFQAQNGPNTSLASLL
Regarding B1, the binding entry in experiment [2] is recorded as “binds”; in experiment [3] it was “no binding”.
